Data: PubChem BioAssay AID624297 (National Center for Advancing Translational Sciences (NCATS), 2012)
Values joined by “and” are separate entries in the source; they are usually repeats but may differ in a detail not shown here. Equal values may be shown once. Out of some 340,000 compounds screened, about 6,200 (1.8%) were called active. This list was built around the results that the source calls inconclusive (neither active nor inactive); the mix of calls is not that of the screen. Calls come from the whole dose curve; as a rule, active = well fitted activation curve with a large enough effect; inconclusive = small, poorly fitted or top-dose-only effect; inactive = no such curve, though single readings can be large or run the other way. A potency beside an inconclusive call is a rough fit, not a confirmed value.

Assay: A quantitative high throughput screen for small molecules that induce DNA re-replication in SW480 colon adenocarcinoma cells. For re-replication activation: % of control where 0% means no effect. Note: nearly all actives have a fitted effect of over 55% in size.
Conditions: Hoechst DNA content imaging, 48 h; re-replication activation: at 46.1 µM (top of the series) unless noted
How it was run: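 Compounds, transferred as 23 nL by pin tool, were incubated with cells for 48 hr; DNA content per nucleus was then quantified by Hoechst staining and fluorescence plate imaging.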
Potency is the fitted concentration of half-maximal effect.

SMILES	Potency	re-replication activation
CN(C)CCCN(C(=O)c1ccc(Br)s1)c1nc2cc3c(cc2s1)OCCO3	inconclusive: 29.1 µM [activator, single point]	–
Clc1ccc(CN2C3=NCCN3c3ccccc32)cc1Cl	inconclusive: 16.4 µM [activator, single point]	–
CC(C)(C)OC(=O)N(CCc1ccccc1)Cc1ccccc1OCc1ccc(NC(=O)C2CCC2)cc1	inconclusive: 14.6 µM [activator, partial curve, poor fit]	–
CCOC(=O)c1nnn(CC(=O)NC(=O)Nc2ccc(F)cc2)c1C(=O)OCC	inconclusive: 1.3 µM [activator, partial curve]	–
O=C(NCc1ccccc1F)c1ccncc1	inconclusive: 20.6 µM [activator, partial curve, poor fit]	–
O=C(NCCCN1CCCC1=O)C1CCN(S(=O)(=O)c2cc(C(F)(F)F)ccc2Cl)CC1	–	inactive: -16.5%
CCN1CCN(C(=O)NC2CCCCC2)CC1	inconclusive: 0.82 µM [activator, full curve, poor fit]	–
O=C1NC[C@H](Cc2ccccc2)N(CC2CCN(CCC3CCCC3)CC2)C1=O	–	inactive: 5.47%
CCOC(=O)c1ccc(NC(=O)N2CCN(c3ccccn3)CC2)cc1	–	inactive: 2.32%
Cc1ccc(C(=O)N/C(=C\c2ccco2)C(=O)N2CCOCC2)cc1C	–	inactive: 2.06%
COc1ccc(C(CNC(=O)c2cccc(NS(=O)(=O)c3ccc(Br)cc3)c2)N(C)C)cc1 (centres undefined)	–	inactive: -554%
COc1ccc(C(CNC(=O)c2oc3ccc(OC)cc3c2C)N2CCCC2)cc1 (centres undefined)	inconclusive: 23.1 µM [activator, partial curve, poor fit]	–
Cc1cc(Br)ccc1OCCCCN1CCCCC1	inconclusive: 29.1 µM [activator, single point]	–
CC1CC1C(=O)OCC(=O)N(C)c1c(N)n(Cc2ccccc2)c(=O)[nH]c1=O (centres undefined)	inconclusive: 3.26 µM [activator, partial curve, poor fit]	–
CCc1nc(SCC(=O)O)c(C#N)c2c1CCCC2	inconclusive: 0.731 µM [activator, partial curve, poor fit]	–
CCc1c(C)c(C#N)c2nc3ccccc3n2c1-n1nc(C)cc1C	–	inactive: -1.36%
O=C(Nc1nc2ccccc2[nH]1)c1ccccc1F	inconclusive: 29.1 µM [activator, single point]	–
Cc1cc(C)n(CCC(=O)N/N=C/c2ccc(Br)c([N+](=O)[O-])c2)n1	–	inactive: -0.808%
O=S1(=O)c2ccc(Br)cc2OC(COCc2ccccc2)CN1Cc1ccccc1 (centres undefined)	inconclusive: 11.6 µM [activator, single point]	–
Cn1nnnc1SCC(=O)N1c2ccccc2CCc2ccccc21	inconclusive: 29.1 µM [activator, single point]	–
O=C(NCC(=O)N1CCN(S(=O)(=O)c2ccccc2F)CC1)c1ccc2c(c1)OCO2	inconclusive: 0.82 µM [activator, partial curve, poor fit]	–
Cc1[nH]n(-c2ccccc2)c(=O)c1C(=O)c1ccc([N+](=O)[O-])cc1	–	inactive: -28%
O=C(Nc1cccc(S(=O)(=O)N2CCCCCC2)c1)c1ccc(Cl)nc1	–	inactive: -5.86%

SMILES	Potency	re-replication activation
O=C(NCc1cccnc1)c1ccc(NS(=O)(=O)c2cccc([N+](=O)[O-])c2)cc1	–	inactive: -1.95%
COc1ccc(Nc2nc(CN3CCOCC3)nc3sc4c(c23)CCC(C)C4)cc1OC (centres undefined)	–	inconclusive: -694% [activator]
O=C(NCc1cccs1)C1CCN(c2nc3ccccc3o2)CC1	–	inactive: -2.65%
COc1ccc([C@H]2CC(=O)C=C(c3cccc(F)c3OC)C2)cc1	inconclusive: 16.4 µM [activator, single point]	–
Cn1nnnc1SCc1nc2scc(-c3ccc(Cl)cc3)c2c(=O)[nH]1	inconclusive: 7.31 µM [activator, partial curve, poor fit]	–
CC1=NN(C(=O)c2cccc(Cn3nc(C)c([N+](=O)[O-])c3C)c2)C(O)(C(F)(F)F)C1 (centres undefined)	inconclusive: 16.4 µM [activator, single point]	–
Cc1ccccc1C(=O)N1CCC2CC1c1cc(Cl)ccc12 (centres undefined)	–	inactive: -0.475%
CC(C)(C)NC(=O)CSc1nc(Cc2ccccc2)nc2ccccc12	–	inactive: 2.37%
CC(C)(C)NS(=O)(=O)c1cccc(S(=O)(=O)c2cccc(S(=O)(=O)NC(C)(C)C)c2)c1	inconclusive: 29.1 µM [activator, partial curve, poor fit]	–
COc1ccc(NC(=O)CCCCCN2C(=O)CCC2=O)cc1Cl	–	inactive: -2.27%
CCOC(=O)N1CCC(n2c(=S)[nH]c3cc(OCC)c(OCC)cc3c2=O)CC1	–	inactive: 7.01%
CCOc1ccc(-n2nnnc2SCC(=O)c2ccccc2)cc1	inconclusive: 29.1 µM [activator, single point]	–
Cc1ccc(OCC(O)Cn2c(=N)n(Cc3ccccc3)c3ccccc32)cc1 (centres undefined)	inconclusive: 25.9 µM [activator, single point]	–
O=C(Cc1ccc(Cl)cc1)NCC(=O)N1CCN(c2ccccc2)CC1	inconclusive: 29.1 µM [activator, single point]	–
O=C(OCc1ccccc1)N1CCC2CC1c1cc(N3CCOCC3)ccc12 (centres undefined)	inconclusive: 1.46 µM [activator, partial curve]	–
COc1ccc(CN2C(=O)c3cccnc3C2=O)cc1S(=O)(=O)N1CC(C)CC(C)C1 (centres undefined)	–	inactive: -13.5%
CCc1ccc(N2C(=O)CC(Cn3nc(C)cc3C)C2=O)cc1 (centres undefined)	inconclusive: 29.1 µM [activator, single point]	–
O=S(=O)(NC1CCCCC1)c1ccc(Cl)s1	inconclusive: 9.2 µM [activator, partial curve]	–
Cc1nc2nc3c(cn2n1)C(=O)CC(C)(C)C3	inconclusive: 29.1 µM [activator, single point]	–
Oc1ccc(CNc2ccccc2O)cc1	active: 20.6 µM	–
O=C(Nc1nnc(C2=COCCO2)o1)c1ccc(S(=O)(=O)N2CCCCC2)cc1	inconclusive: 16.4 µM [activator, single point]	–
COCC(=O)O[C@]1(CCN(C)CCCc2nc3ccccc3[nH]2)CCc2cc(F)ccc2[C@@H]1C(C)C	inconclusive: 25.9 µM [activator, partial curve, poor fit] and inconclusive: 5.96 µM [activator, full curve, poor fit]	–
CN(C)C(/C=C/Nc1cccc([N+](=O)[O-])c1)=C(C#N)C#N	inconclusive: 29.1 µM [activator, single point]	–

SMILES	Potency	re-replication activation
COc1cccc(/C=N/NC(=O)c2nnn(-c3nonc3N)c2C(C)C)c1	inconclusive: 29.1 µM [activator, single point]	–
O=C(Nc1ccccc1N1CCCCC1)C1CCN(S(=O)(=O)c2ccccc2C(F)(F)F)CC1	–	inactive: -79.3%
O=C1c2ccccc2C(=O)N1Cc1cc(-c2ccccc2Cl)no1	–	inactive: -7.3%
O=c1c2c3c(sc2n(CCN2CCCC2)c(=O)n1Cc1ccco1)CCCCC3	inconclusive: 25.9 µM [activator, single point]	–
CCCn1[nH]cc(SC)c(=O)c1=O	inconclusive: 35.5 µM [activator, single point]	–
CC(Sc1nnc(-c2ccc(Cl)cc2)n1N)C(=O)NCC1CCCO1 (centres undefined)	–	inactive: -1.45%
COc1ccc(CCn2c(=N)c(C(=O)NCC3CCCO3)cc3c(=O)n4ccccc4nc32)cc1OC (centres undefined)	inconclusive: 29.1 µM [activator, single point]	–
Cc1nn(CC(C)C(=O)N2CCN(S(=O)(=O)c3ccc(Cl)cc3)CC2)c(C)c1C (centres undefined)	–	inactive: -5.59%
CN(C)c1ccc(/C=N/NC(=O)c2cc(-c3ccc4c(c3)OCO4)n[nH]2)cc1	inconclusive: 20.6 µM [activator, single point]	–
CCS(=O)(=O)c1ccc(O)c(NC(=O)COc2ccc(Br)cc2)c1	inconclusive: 23.1 µM [activator, single point]	–
Cc1c(C(=O)O)sc2nc(/C=C/c3ccccc3OC(F)F)[nH]c(=O)c12	active: 23.1 µM	–
Cc1ccc2nc(SCC(=O)NC3CCCc4ccccc43)[nH]c2c1 (centres undefined)	inconclusive: 20.6 µM [activator, single point]	–
N#C/C(=C/c1ccc(N2CCCCCC2)o1)c1ccc(F)cc1	active: 11.6 µM	–
COc1ccc(C(Nc2ccccn2)c2c(NC(=O)c3ccco3)sc(C)c2C)cc1 (centres undefined)	–	inactive: 17%
CC(=O)C1=C(O)C(=O)N(c2ccc(Br)cn2)C1c1ccc(Br)cc1 (centres undefined)	inconclusive: 0.92 µM [activator, partial curve, poor fit]	–
COc1ccc(Oc2cc(C(F)(F)F)cnc2C(N)=O)cc1	inconclusive: 25.9 µM [activator, partial curve, poor fit]	–
COc1ccc(OC)c(C(=O)C2COC(=O)C2)c1 (centres undefined)	inconclusive: 29.1 µM [activator, single point]	–
Cc1nn(CCCC(=O)NCc2ccc(Cl)cc2)c(C)c1[N+](=O)[O-]	–	inactive: -205%
O=C(NNC1=Nc2ccccc2SC1)c1ccccc1F	inconclusive: 29.1 µM [activator, partial curve, poor fit]	–
Cc1sc(-c2c(C#N)c(N)nc3c2CCCCCC3)cc1[N+](=O)[O-]	inconclusive: 10.3 µM [activator, partial curve, poor fit]	–
CCOc1cc(C(=O)OCC(=O)Nc2ncc(Cl)c(C)c2Cl)ccc1OCC(=O)N1CCOCC1	–	inactive: -9.21%
CC(NC(=O)c1cccc2ccccc12)c1ccc2c(c1)CCCC2 (centres undefined)	inconclusive: 29.1 µM [activator, single point]	–
CC(C)N1CCN(C(=O)c2ccc(OC3CCN(CCc4ccccc4)CC3)cc2)CC1	inconclusive: 23.1 µM [activator, single point]	–

3 successive compounds already listed:
SMILES	Potency	re-replication activation
O=C(Nc1ccccc1N1CCCCC1)C1CCN(S(=O)(=O)c2ccccc2C(F)(F)F)CC1	–	inactive: -79.3%
O=C1c2ccccc2C(=O)N1Cc1cc(-c2ccccc2Cl)no1	–	inactive: -7.3%
O=c1c2c3c(sc2n(CCN2CCCC2)c(=O)n1Cc1ccco1)CCCCC3	inconclusive: 25.9 µM [activator, single point]	–
